These are yes or no findings as the source states them, for the method shown. Binding seen in cells or lysates may run through a third protein. These calls come from enrichment with a bait or labelling near it, and not all partners need be listed.
B1: PP1 regulatory subunit GL (protein, UniProt Q86XI6 1-285)
chain: MMAVDIEYRYNCMAPSLRQERFAFKISPKPSKPLRPCIQLSSKNEASGMVAPAVQEKKVKKRVSFADNQGLALTMVKVFSEFDDPLDMPFNITELLDNIVSLTTAESESFVLDFSQPSADYLDFRNRLQADHVCLENCVLKDKAIAGTVKVQNLAFEKTVKIRMTFDTWKSYTDFPCQYVKDTYAGSDRDTFSFDISLPEKIQSYERMEFAVYYECNGQTYWDSNRGKNYRIIRAELKSTQGMTKPHSGPDLGISFDQFGSPRCSYGLFPEWPSYLGYEKLGPYY
B2: PP1 regulatory subunit GM (protein, UniProt Q16821 1-1122)
chain: MEPSEVPSQISKDNFLEVPNLSDSLCEDEEVTFQPGFSPQPSRRGSDSSEDIYLDTPSSGTRRVSFADSFGFNLVSVKEFDCWELPSASTTFDLGTDIFHTEEYVLAPLFDLPSSKEDLMQQLQIQKAILESTESLLGSTSIKGIIRVLNVSFEKLVYVRMSLDDWQTHYDILAEYVPNSCDGETDQFSFKIVLVPPYQKDGSKVEFCIRYETSVGTFWSNNNGTNYTFICQKKEQEPEPVKPWKEVPNRQIKGCLKVKSSKEESSVTSEENNFENPKNTDTYIPTIICSHEDKEDLEASNRNVKDVNREHDEHNEKELELMINQHLIRTRSTASRDERNTFSTDPVNFPNKAEGLEKKQIHGEICTDLFQRSLSPSSSAESSVKGDFYCNEKYSSGDDCTHQPSEETTSNMGEIKPSLGDTSSDELVQLHTGSKEVLDDNANPAHGNGTVQIPCPSSDQLMAGNLNKKHEGGAKNIEVKDLGCLRRDFHSDTSACLKESTEEGSSKEDYYGNGKDDEEQRIYLGVNEKQRKNFQTILHDQERKMGNPKISVAGIGASNRDLATLLSEHTAIPTRAITADVSHSPRTNLSWEEAVLTPEHHHLTSEGSALGGITGQVCSSRTGNVLRNDYLFQVEEKSGGINSEDQDNSPQHKQSWNVLESQGKSRENKTNITEHIKGQTDCEDVWGKRDNTRSLKATTEELFTCQETVCCELSSLADHGITEKAEAGTAYIIKTTSESTPESMSAREKAIIAKLPQETARSDRPIEVKETAFDPHEGRNDDSHYTLCQRDTVGVIYDNDFEKESRLGICNVRVDEMEKEETMSMYNPRKTHDREKCGTGNITSVEESSWVITEYQKATSKLDLQLGMLPTDKTVFSENRDLRQVQELSKKTDSDAIVHSAFNSDTNRAPQNSSPFSKHHTEISVSTNEQAIAVENAVTTMASQPISTKSENICNSTREIQGIEKHPYPESKPEEVSRSSGIVTSGSRKERCIGQIFQTEEYSVEKSLGPMILINKPLENMEEARHENEGLVSSGQSLYTSGEKESDSSASTSLPVEESQAQGNESLFSKYTNSKIPYFLLFLIFLITVYHYDLMIGLTFYVLSLSWLSWEEGRQKESVKKK
B3: PPP1R3 family member PPP1R3C (PTG), Q9UQK1 1-317 (protein)
chain: MSCTRMIQVLDPRPLTSSVMPVDVAMRLCLAHSPPVKSFLGPYDEFQRRHFVNKLKPLKSCLNIKHKAKSQNDWKCSHNQAKKRVVFADSKGLSLTAIHVFSDLPEEPAWDLQFDLLDLNDISSALKHHEEKNLILDFPQPSTDYLSFRSHFQKNFVCLENCSLQERTVTGTVKVKNVSFEKKVQIRITFDSWKNYTDVDCVYMKNVYGGTDSDTFSFAIDLPPVIPTEQKIEFCISYHANGQVFWDNNDGQNYRIVHVQWKPDGVQTQMAPQDCAFHQTSPKTELESTIFGSPRLASGLFPEWQSWGRMENLASYR

The chains behind the UniProt entries cited, without tags or fusion partners. Residues count along the entry.
UniProt P35869, residues 11-848: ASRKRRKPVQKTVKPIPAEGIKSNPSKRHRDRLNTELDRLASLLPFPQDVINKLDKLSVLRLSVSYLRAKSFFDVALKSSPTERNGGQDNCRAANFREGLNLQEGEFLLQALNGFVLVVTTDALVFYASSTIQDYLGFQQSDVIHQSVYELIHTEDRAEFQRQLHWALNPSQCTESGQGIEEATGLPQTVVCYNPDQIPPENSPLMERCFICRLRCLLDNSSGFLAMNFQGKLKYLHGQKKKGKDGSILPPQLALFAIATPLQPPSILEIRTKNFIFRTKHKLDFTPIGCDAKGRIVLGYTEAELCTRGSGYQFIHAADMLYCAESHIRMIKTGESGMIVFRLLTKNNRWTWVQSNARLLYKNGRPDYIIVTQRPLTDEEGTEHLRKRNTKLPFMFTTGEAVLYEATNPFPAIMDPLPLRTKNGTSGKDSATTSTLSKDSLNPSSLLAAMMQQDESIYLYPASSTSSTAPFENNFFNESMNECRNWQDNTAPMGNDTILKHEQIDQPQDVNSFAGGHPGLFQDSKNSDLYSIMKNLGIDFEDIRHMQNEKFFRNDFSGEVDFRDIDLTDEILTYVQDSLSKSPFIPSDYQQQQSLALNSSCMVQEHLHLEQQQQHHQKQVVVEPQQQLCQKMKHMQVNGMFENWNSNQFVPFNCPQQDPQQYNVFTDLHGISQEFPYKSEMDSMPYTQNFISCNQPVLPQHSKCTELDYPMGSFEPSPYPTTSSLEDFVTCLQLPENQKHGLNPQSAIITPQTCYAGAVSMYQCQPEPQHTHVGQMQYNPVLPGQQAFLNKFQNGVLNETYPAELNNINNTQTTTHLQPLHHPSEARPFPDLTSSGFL
UniProt P35573: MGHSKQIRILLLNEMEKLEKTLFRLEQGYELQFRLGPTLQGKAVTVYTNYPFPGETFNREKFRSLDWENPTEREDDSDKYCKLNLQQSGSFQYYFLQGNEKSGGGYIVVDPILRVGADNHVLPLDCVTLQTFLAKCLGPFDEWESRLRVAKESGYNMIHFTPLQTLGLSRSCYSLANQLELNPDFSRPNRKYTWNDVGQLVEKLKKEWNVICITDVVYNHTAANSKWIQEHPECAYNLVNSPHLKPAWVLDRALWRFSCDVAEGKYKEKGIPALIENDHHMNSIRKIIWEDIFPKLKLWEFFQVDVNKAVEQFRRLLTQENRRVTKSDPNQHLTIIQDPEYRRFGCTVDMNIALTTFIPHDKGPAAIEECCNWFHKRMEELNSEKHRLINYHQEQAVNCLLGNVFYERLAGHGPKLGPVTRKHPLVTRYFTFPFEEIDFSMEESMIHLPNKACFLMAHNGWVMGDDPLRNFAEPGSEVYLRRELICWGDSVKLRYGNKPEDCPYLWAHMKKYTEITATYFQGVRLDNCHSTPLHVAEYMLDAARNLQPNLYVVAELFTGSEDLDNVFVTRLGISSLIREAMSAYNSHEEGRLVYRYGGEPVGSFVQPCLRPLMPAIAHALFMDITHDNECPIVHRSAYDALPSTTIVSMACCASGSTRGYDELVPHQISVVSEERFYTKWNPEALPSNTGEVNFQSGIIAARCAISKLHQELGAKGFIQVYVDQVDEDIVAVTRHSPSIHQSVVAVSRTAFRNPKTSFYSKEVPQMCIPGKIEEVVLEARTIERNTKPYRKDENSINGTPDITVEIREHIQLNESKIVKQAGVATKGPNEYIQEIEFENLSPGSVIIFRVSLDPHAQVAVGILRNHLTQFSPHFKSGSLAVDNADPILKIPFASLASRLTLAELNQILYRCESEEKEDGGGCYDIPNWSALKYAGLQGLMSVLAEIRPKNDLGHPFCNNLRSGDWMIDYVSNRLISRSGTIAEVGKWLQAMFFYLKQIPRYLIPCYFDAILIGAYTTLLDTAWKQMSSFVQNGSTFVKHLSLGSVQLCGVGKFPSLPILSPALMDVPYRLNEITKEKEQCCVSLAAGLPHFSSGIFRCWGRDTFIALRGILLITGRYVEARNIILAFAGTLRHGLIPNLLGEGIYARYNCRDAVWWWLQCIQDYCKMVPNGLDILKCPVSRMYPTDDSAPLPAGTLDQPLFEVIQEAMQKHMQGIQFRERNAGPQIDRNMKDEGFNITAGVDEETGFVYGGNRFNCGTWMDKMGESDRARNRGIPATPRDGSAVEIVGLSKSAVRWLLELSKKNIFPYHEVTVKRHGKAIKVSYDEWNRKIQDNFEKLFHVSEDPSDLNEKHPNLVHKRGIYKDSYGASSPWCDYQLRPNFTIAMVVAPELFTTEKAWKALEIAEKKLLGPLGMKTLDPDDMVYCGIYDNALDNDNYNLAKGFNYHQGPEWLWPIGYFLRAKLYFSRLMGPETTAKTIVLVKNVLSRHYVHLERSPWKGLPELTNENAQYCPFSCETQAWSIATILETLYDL

Molecular target: T1, starch-binding domain containing protein 1 (STBD1) (human (endogenous in MCF-7, MCF-7/DDP, A549/5-Fu, HEK293T)) (UniProt O95210)
T1 sequence: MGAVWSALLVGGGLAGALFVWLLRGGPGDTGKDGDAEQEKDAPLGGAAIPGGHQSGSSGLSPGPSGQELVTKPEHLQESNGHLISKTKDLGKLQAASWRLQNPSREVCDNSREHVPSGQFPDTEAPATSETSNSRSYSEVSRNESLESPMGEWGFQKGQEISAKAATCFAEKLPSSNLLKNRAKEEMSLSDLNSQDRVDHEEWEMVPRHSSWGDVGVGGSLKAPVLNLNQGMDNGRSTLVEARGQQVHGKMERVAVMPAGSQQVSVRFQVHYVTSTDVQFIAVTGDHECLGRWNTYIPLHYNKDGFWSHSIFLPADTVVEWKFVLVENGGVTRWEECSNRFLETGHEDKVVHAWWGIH
Test: affinity purification with mass spectrometry; anti-STBD1 immunoprecipitate from lysates of MCF-7 or MCF-7/DDP cells treated with DDP for 24 hours; SDS-PAGE, in-gel trypsin digestion, nano-UPLC MS
Details: not given

binding, binds:
aryl hydrocarbon receptor (AHR) (from UniProt P35869 11-848)
debranching enzyme (from UniProt P35573 1-1532)
glycogen phosphorylase (GP) (human (endogenous in MCF-7, MCF-7/DDP)) (enzyme)
glycogen synthase (GYS) (human (endogenous in MCF-7, MCF-7/DDP)) (enzyme)
protein phosphatase 1 catalytic subunit (PP1c) (human (endogenous in MCF-7, MCF-7/DDP)) (enzyme)
B1
B2

Molecular target: T2, starch-binding domain containing protein 1 (STBD1) (human (endogenous in MCF-7, MCF-7/DDP, A549/5-Fu, HEK293T)), O95210
T2 chain: T1 sequence
Test: as above
Details: remark: other sources report otherwise

binding, binds:
B3

From paper PMC10721154
